Five molecules from article PMC6375906 can be followed below.

Chains of the proteins cited; added tags and fusions are not shown.
UniProt P60903: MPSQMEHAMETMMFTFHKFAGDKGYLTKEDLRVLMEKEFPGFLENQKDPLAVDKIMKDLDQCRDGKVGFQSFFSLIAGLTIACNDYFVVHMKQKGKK

Test [1] has as its target GST-p11 (p11 protein tagged with glutathione S-transferase) (UniProt P60903). Nature of the test: pull-down; 50 μg GST-p11 or GST alone on glutathione-agarose beads incubated 3 h at 4°C with COS-7 lysates containing HA-tagged ENaC (precleared with GST beads); washed with 1% Triton in PBS; anti-HA immunoblot; only the target purified. On the technique in general: Immunoblotting shows a protein as a band on a membrane.

The target of test [2] is p11-myc-DDK (human) (UniProt P60903). The experiment in a line: co-IP; HEK293 co-transfected with p11-myc-DDK and α-, βHA-, γ-ENaC; two sequential rounds of immunoprecipitation with anti-HA and anti-DDK; Western blot with anti-HA and anti-myc DDK.
For test [3] the target is unchanged. The experiment in a line: co-IP; HEK293 co-transfected with p11-myc-DDK and α-, βHA-, γ-ENaC; lysed after 24 h in 1% Triton in TBS; mouse anti-p11 antibody and protein G-agarose; blot with anti-HA and anti-p11.

Results are given in words; binding and its absence hold for the method and conditions named. Binding seen in cells or lysates may run through a third protein. Some binding calls cover weakened binding; strength is not graded here. For part of these data: Sequences can lack the tags named with a protein.

Take “αβHAγ ENaC channel complex (trimeric complex of α-, βHA-, and γ-ENaC) in COS-7 cells (from UniProt P37088 1-669; P51168 1-640; P51170 1-649)”: the binding entry in test [1] was “binds”. Regarding “αβHAγ ENaC (α-, βHA-, and γ-ENaC co-expressed) in HEK293 cells (from UniProt P37088 1-669; P51168 1-640; P51170 1-649) (complex)”, the binding entry in test [2] and in test [3] was “binds” throughout.

B1: HA-tagged α-ENaC subunit, expressed alone (protein, UniProt P37088 1-669)
chain: MEGNKLEEQDSSPPQSTPGLMKGNKREEQGLGPEPAAPQQPTAEEEALIEFHRSYRELFEFFCNNTTIHGAIRLVCSQHNRMKTAFWAVLWLCTFGMMYWQFGLLFGEYFSYPVSLNINLNSDKLVFPAVTICTLNPYRYPEIKEELEELDRITEQTLFDLYKYSSFTTLVAGSRSRRDLRGTLPHPLQRLRVPPPPHGARRARSVASSLRDNNPQVDWKDWKIGFQLCNQNKSDCFYQTYSSGVDAVREWYRFHYINILSRLPETLPSLEEDTLGNFIFACRFNQVSCNQANYSHFHHPMYGNCYTFNDKNNSNLWMSSMPGINNGLSLMLRAEQNDFIPLLSTVTGARVMVHGQDEPAFMDDGGFNLRPGVETSISMRKETLDRLGGDYGDCTKNGSDVPVENLYPSKYTQQVCIHSCFQESMIKECGCAYIFYPRPQNVEYCDYRKHSSWGYCYYKLQVDFSSDHLGCFTKCRKPCSVTSYQLSAGYSRWPSVTSQEWVFQMLSRQNNYTVNNKRNGVAKVNIFFKELNYKTNSESPSVTMVTLLSNLGSQWSLWFGSSVLSVVEMAELVFDLLVIMFLMLLRRFRSRYWSPGRGGRGAQEVASTLASSPPSHFCPHPMSLSLSQPGPAPSPALTAPPPAYATLGPRPSPGGSAGASSSTCPLGGP
With B1, in test [1], the binding entry was “binds”.

B2: HA-tagged β-ENaC subunit, expressed alone (protein, UniProt P51168 1-640)
chain: MHVKKYLLKGLHRLQKGPGYTYKELLVWYCDNTNTHGPKRIICEGPKKKAMWFLLTLLFAALVCWQWGIFIRTYLSWEVSVSLSVGFKTMDFPAVTICNASPFKYSKIKHLLKDLDELMEAVLERILAPELSHANATRNLNFSIWNHTPLVLIDERNPHHPMVLDLFGDNHNGLTSSSASEKICNAHGCKMAMRLCSLNRTQCTFRNFTSATQALTEWYILQATNIFAQVPQQELVEMSYPGEQMILACLFGAEPCNYRNFTSIFYPHYGNCYIFNWGMTEKALPSANPGTEFGLKLILDIGQEDYVPFLASTAGVRLMLHEQRSYPFIRDEGIYAMSGTETSIGVLVDKLQRMGEPYSPCTVNGSEVPVQNFYSDYNTTYSIQACLRSCFQDHMIRNCNCGHYLYPLPRGEKYCNNRDFPDWAHCYSDLQMSVAQRETCIGMCKESCNDTQYKMTISMADWPSEASEDWIFHVLSQERDQSTNITLSRKGIVKLNIYFQEFNYRTIEESAANNIVWLLSNLGGQFGFWMGGSVLCLIEFGEIIIDFVWITIIKLVALAKSLRQRRAQASYAGPPPTVAELVEAHTNFGFQPDTAPRSPNTGPYPSEQALPIPGTPPPNYDSLRLQPLDVIESDSEGDAI
Consider B2, for which the binding entry in test [1] was “binds”.

B3: HA-tagged γ-ENaC subunit, expressed alone (protein, UniProt P51170 1-649)
chain: MAPGEKIKAKIKKNLPVTGPQAPTIKELMRWYCLNTNTHGCRRIVVSRGRLRRLLWIGFTLTAVALILWQCALLVFSFYTVSVSIKVHFRKLDFPAVTICNINPYKYSTVRHLLADLEQETREALKSLYGFPESRKRREAESWNSVSEGKQPRFSHRIPLLIFDQDEKGKARDFFTGRKRKVGGSIIHKASNVMHIESKQVVGFQLCSNDTSDCATYTFSSGINAIQEWYKLHYMNIMAQVPLEKKINMSYSAEELLVTCFFDGVSCDARNFTLFHHPMHGNCYTFNNRENETILSTSMGGSEYGLQVILYINEEEYNPFLVSSTGAKVIIHRQDEYPFVEDVGTEIETAMVTSIGMHLTESFKLSEPYSQCTEDGSDVPIRNIYNAAYSLQICLHSCFQTKMVEKCGCAQYSQPLPPAANYCNYQQHPNWMYCYYQLHRAFVQEELGCQSVCKEACSFKEWTLTTSLAQWPSVVSEKWLLPVLTWDQGRQVNKKLNKTDLAKLLIFYKDLNQRSIMESPANSIEMLLSNFGGQLGLWMSCSVVCVIEIIEVFFIDFFSIIARRQWQKAKEWWAWKQAPPCPEAPRSPQGQDNPALDIDDDLPTFNSALHLPPALGTQVPGTPPPKYNTLRLERAFSNQLTDTQMLDEL
B3: the binding entry in test [1] is reported as “binds”.
